The list shows a part of the results. Most entries show no effect beyond the scatter of the controls.

Amino acid sequences for entries named in this document (tags omitted). A change or cut given only in a name is not applied to a line headed by its entry.
UniProt Q9UPS6, whole entry: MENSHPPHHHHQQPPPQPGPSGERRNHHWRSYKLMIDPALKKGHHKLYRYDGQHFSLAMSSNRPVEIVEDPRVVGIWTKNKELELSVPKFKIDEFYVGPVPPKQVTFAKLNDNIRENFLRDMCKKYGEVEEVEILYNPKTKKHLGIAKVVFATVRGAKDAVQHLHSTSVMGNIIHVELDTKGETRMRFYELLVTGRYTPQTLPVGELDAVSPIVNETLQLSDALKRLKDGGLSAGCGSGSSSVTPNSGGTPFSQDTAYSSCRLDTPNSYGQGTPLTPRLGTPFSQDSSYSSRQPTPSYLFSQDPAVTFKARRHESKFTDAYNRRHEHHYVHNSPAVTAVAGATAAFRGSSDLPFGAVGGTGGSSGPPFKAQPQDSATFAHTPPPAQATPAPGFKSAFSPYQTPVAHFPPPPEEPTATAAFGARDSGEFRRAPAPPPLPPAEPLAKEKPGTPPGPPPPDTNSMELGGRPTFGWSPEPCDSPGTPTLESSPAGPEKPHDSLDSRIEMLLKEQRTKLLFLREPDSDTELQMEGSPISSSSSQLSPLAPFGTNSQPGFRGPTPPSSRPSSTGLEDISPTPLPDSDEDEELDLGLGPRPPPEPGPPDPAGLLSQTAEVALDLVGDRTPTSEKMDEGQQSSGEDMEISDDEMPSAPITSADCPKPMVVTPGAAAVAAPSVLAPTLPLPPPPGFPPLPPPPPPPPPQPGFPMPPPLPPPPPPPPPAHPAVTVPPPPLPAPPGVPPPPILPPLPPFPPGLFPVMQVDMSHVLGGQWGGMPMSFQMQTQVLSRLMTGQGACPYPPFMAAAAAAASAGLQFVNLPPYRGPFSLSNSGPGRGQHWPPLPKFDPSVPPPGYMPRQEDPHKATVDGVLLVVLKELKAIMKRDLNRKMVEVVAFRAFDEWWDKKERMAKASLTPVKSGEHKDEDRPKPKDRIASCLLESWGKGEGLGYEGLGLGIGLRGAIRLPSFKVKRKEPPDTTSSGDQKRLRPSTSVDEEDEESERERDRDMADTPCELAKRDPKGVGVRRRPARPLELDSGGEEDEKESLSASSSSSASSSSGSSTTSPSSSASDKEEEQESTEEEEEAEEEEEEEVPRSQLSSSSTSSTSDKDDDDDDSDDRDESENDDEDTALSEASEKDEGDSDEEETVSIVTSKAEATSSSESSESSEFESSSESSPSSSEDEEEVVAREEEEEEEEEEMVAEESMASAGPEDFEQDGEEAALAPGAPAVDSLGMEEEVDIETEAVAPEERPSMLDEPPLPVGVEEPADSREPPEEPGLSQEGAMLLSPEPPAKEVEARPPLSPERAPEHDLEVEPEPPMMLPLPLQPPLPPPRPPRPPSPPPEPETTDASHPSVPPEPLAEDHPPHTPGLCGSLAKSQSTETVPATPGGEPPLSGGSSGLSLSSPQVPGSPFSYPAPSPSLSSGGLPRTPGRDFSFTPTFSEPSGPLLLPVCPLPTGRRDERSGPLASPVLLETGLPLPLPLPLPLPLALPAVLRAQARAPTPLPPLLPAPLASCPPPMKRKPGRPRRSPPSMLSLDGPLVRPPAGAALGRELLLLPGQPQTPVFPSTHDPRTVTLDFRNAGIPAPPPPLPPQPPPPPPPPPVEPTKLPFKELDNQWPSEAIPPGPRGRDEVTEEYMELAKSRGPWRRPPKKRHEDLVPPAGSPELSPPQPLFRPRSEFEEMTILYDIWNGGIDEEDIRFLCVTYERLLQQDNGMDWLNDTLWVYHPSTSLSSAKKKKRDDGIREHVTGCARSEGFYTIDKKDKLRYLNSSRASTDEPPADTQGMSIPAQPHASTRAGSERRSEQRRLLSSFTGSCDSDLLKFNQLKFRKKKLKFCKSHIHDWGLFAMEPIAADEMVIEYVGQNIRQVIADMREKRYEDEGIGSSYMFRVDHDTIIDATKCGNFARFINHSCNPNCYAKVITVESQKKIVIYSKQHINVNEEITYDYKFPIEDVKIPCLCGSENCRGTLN
UniProt Q9UI47: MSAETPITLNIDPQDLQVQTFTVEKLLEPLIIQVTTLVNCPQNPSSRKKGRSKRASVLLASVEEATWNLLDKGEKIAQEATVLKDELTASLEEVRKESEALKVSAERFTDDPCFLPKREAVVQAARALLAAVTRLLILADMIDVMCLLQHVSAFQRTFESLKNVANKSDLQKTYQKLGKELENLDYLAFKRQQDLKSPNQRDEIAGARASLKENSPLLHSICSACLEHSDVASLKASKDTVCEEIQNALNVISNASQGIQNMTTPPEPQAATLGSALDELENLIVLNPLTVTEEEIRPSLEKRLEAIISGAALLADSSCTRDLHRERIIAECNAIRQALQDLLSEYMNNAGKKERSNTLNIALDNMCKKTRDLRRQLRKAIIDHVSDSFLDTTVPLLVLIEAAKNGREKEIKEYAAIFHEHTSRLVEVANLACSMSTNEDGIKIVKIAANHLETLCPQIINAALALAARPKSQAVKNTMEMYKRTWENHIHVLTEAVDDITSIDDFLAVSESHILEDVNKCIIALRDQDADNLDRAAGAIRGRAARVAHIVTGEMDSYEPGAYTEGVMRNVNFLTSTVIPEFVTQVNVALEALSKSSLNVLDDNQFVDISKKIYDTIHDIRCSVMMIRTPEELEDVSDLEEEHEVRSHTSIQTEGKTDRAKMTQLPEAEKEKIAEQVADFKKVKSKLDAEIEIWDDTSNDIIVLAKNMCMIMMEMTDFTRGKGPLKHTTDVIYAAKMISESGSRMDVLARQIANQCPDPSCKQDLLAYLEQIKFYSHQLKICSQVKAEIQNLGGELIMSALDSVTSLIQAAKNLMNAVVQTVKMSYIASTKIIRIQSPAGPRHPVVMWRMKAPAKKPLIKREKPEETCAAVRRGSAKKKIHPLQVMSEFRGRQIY
UniProt Q9UJM8: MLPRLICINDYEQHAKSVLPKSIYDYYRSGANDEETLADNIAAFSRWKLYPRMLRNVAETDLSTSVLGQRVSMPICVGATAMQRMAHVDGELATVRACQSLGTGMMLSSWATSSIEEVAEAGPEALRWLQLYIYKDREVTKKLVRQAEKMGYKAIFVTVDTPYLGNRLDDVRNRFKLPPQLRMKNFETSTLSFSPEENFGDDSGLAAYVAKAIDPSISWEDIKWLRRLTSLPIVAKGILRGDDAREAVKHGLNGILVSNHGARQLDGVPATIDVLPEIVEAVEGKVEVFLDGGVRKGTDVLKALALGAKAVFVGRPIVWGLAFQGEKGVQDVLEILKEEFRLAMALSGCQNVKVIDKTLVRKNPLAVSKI
UniProt Q9ULS6: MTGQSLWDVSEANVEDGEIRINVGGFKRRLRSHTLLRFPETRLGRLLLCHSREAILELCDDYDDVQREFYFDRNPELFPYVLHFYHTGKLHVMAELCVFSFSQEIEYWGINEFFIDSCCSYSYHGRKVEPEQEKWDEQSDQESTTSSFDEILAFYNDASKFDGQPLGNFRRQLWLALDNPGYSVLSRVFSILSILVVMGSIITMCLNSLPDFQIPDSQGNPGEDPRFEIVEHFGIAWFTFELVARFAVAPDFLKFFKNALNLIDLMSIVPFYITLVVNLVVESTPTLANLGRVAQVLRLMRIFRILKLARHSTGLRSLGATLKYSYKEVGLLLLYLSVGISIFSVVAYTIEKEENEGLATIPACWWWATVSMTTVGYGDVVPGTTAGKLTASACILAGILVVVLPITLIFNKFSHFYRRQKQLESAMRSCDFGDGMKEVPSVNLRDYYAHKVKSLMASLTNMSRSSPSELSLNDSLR
UniProt Q9UMS0: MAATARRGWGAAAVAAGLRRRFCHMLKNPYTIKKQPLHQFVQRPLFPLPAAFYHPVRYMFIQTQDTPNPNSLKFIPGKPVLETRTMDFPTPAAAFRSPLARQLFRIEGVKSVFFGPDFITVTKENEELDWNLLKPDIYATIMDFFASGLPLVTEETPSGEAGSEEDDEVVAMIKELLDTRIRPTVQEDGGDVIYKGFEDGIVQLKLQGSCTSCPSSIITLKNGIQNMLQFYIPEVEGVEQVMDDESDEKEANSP
UniProt Q9UQ13: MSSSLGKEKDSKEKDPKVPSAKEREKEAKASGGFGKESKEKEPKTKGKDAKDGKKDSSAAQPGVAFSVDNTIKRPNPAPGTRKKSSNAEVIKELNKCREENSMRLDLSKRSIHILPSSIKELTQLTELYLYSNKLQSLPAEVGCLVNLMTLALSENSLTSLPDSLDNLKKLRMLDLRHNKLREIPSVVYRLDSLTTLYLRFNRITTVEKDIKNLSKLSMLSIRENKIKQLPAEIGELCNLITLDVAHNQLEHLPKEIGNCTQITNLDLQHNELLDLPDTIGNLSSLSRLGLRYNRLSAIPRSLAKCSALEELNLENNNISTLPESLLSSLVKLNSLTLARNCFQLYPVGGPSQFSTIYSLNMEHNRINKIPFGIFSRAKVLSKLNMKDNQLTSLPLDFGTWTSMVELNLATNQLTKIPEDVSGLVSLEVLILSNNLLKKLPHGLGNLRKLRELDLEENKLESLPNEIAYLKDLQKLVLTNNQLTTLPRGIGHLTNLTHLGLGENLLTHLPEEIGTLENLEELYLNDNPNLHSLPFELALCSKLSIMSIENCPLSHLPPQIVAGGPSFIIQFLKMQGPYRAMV
UniProt Q9UNZ2: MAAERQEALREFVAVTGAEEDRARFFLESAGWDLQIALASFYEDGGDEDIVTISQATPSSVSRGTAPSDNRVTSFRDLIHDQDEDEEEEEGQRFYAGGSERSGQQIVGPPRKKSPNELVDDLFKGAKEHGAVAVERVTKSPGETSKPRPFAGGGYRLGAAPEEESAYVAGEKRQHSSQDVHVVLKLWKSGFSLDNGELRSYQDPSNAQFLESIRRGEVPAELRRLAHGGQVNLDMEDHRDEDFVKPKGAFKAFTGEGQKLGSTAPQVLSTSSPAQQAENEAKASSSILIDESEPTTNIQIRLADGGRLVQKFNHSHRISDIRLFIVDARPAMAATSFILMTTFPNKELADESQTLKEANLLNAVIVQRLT
UniProt Q9Y242: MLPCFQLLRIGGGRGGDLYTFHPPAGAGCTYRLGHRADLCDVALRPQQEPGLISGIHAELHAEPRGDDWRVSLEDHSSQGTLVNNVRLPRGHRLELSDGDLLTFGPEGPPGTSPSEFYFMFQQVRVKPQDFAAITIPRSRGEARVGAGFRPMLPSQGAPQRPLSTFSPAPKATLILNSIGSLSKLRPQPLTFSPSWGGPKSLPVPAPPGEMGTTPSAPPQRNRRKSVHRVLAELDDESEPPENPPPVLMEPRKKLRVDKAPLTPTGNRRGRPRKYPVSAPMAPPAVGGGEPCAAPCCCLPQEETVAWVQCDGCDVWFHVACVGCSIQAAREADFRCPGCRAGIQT
UniProt Q9UI12, whole entry: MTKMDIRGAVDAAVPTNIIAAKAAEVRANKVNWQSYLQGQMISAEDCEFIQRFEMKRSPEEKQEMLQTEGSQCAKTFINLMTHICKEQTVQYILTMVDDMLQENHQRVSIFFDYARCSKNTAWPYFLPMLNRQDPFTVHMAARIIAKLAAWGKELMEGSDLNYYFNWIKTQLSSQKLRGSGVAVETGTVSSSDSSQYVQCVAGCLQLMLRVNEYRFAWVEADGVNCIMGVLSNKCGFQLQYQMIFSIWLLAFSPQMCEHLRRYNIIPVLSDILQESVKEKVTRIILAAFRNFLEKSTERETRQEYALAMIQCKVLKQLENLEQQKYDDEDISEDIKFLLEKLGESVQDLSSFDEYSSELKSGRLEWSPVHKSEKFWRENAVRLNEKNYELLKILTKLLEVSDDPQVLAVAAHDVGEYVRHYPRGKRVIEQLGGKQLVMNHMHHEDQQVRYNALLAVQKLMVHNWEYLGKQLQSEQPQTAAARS
UniProt Q9UJ04: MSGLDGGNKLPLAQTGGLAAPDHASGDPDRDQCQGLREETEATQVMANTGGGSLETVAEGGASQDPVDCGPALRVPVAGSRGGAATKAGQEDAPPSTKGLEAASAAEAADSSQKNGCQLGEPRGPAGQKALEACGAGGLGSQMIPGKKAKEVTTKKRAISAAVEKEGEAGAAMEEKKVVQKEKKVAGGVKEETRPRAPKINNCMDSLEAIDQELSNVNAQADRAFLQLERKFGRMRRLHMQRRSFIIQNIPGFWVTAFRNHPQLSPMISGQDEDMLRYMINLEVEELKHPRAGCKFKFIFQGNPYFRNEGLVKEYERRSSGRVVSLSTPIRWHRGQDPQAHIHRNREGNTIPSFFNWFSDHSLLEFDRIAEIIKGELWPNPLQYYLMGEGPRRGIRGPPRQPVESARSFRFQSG
UniProt Q9UHR6: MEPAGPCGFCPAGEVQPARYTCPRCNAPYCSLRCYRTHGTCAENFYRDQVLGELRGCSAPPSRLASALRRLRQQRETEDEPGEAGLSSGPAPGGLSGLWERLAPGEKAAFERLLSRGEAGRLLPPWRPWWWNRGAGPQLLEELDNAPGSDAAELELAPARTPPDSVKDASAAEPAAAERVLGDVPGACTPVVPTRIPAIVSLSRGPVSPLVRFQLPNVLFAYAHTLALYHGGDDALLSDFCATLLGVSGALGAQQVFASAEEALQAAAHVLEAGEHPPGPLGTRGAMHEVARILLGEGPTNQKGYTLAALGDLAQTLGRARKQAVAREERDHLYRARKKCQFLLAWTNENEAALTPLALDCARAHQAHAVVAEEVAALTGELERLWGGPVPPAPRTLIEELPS

Compound in this assay: Cc1nc(Nc2ncc(C(=O)Nc3c(C)cccc3Cl)s2)cc(N2CCN(CCO)CC2)n1 [dasatinib]
Put plainly: log2 fold change of tryptic peptide abundance, ligand vs vehicle (limited proteolysis) (log2 ratio); higher = more trypsin-susceptible (destabilized). The conditions noted are these: ligand concentration: 5 uM; sample: K562 cleared lysate.
For “SETD1B (peptide sequence: KYGEVEEVEILYNPK, peptide start residue: 125) (UniProt Q9UPS6)”, the log2 fold change amounted to 0.288. Regarding “DBNL (peptide sequence: NGPALQEAYVR, peptide start residue: 8) (UniProt Q9UJU6)”, the log2 fold change was determined as 0.114. With “PACSIN3 (peptide sequence: LKEVEASKK, peptide start residue: 147) (UniProt Q9UKS6)”, the log2 fold change is -0.573.

Take “UniProt Q9UI47 (peptide sequence: NLMNAVVQTVK, peptide start residue: 824)”: the log2 fold change was -0.0486. Next, “UniProt Q9UQ03 (peptide sequence: IWEIPEGGLK, peptide start residue: 114)”: -0.0142; “CHKB (peptide sequence: DGLQQSKCPDTTPK, peptide start residue: 21) (UniProt Q9Y259)”: -0.0411. Next, “EIF3L (peptide sequence: IQLLVFK, peptide start residue: 488) (UniProt Q9Y262)”: -0.25.

For “FAF1 (peptide sequence: LSLEQALPPEPK, peptide start residue: 555) (UniProt Q9UNN5)”, the log2 fold change is -0.901. Next, “CDYL (peptide sequence: MELEQANERECEVLK, peptide start residue: 561) (UniProt Q9Y232)”: 0.3; “UniProt Q9UJM8 (peptide sequence: ALALGAK, peptide start residue: 289)”: -0.0175; “AGTPBP1 (peptide sequence: TLQQQPGDQNR, peptide start residue: 508) (UniProt Q9UPW5)”: -0.258. Consider “ABT1 (peptide sequence: RVAASLHNTPMGAR, peptide start residue: 120) (UniProt Q9ULW3)”, for which the log2 fold change amounted to 0.512. For “MKLN1 (peptide sequence: SLQEEEPCPR, peptide start residue: 575) (UniProt Q9UL63)” the value was 0.7. With “GGA2 (peptide sequence: YLGSWATGK, peptide start residue: 118) (UniProt Q9UJY4)”, the log2 fold change was -0.269. In the case of “SAP30BP (peptide sequence: NMSPDEIK, peptide start residue: 111) (UniProt Q9UHR5)”, the log2 fold change turned out to be 0.135. For “TIMELESS (peptide sequence: AGLASPEEEDAVGKEPLK, peptide start residue: 1145) (UniProt Q9UNS1)” the value was -0.131. Next, “UniProt Q9ULS6 (peptide sequence: FDGQPLGNFRR, peptide start residue: 161)”: 0.0216; “ACIN1 (peptide sequence: KPSISITTESLK, peptide start residue: 861) (UniProt Q9UKV3)”: -0.152; “NFU1 (peptide sequence: TMDFPTPAAAFR, peptide start residue: 85) (UniProt Q9UMS0)”: -1.1.

For “SHOC2 (peptide sequence: SIHILPSSIK, peptide start residue: 111) (UniProt Q9UQ13)”, the log2 fold change is -0.403. With “NUDT5 (peptide sequence: TTYMDPTGK, peptide start residue: 34) (UniProt Q9UKK9)”, the log2 fold change was found to be 0.0683. For “NSFL1C (peptide sequence: SPGETSKPR, peptide start residue: 140) (UniProt Q9UNZ2)” the value was 0.225. With “UniProt Q9Y242 (peptide sequence: LRVDKAPLTPTGNR, peptide start residue: 255)”, the log2 fold change was -0.115. “UniProt Q9UJL9 (peptide sequence: VALWEDVTK, peptide start residue: 29)”: the log2 fold change came out at 0.463. For “NARF (peptide sequence: VLGRPITAHLCTAK, peptide start residue: 182) (UniProt Q9UHQ1)” the value was -0.944; for “ATP6V1H (peptide sequence: LMVHNWEYLGK, peptide start residue: 459) (UniProt Q9UI12)”, -0.0774; for “TSPYL4 (peptide sequence: AFLQLER, peptide start residue: 224) (UniProt Q9UJ04)”, -0.205. Consider “DDX41 (peptide sequence: QTHGILEYYCR, peptide start residue: 272) (UniProt Q9UJV9)”, for which the log2 fold change is -0.363.

“SNX6 (peptide sequence: NLVELAELELKHAK, peptide start residue: 376) (UniProt Q9UNH7)”: the log2 fold change is -0.37. For “ENOPH1 (peptide sequence: IGHKVESESYR, peptide start residue: 184) (UniProt Q9UHY7)” the value was 1.03; for “NENF (peptide sequence: YPIVGYTAR, peptide start residue: 137) (UniProt Q9UMX5)”, 0.359. For “ZNHIT2 (peptide sequence: CNAPYCSLR, peptide start residue: 25) (UniProt Q9UHR6)” the value was 0.179; for “ANAPC7 (peptide sequence: INMMLANLYK, peptide start residue: 137) (UniProt Q9UJX3)”, -0.681; for “MYO6 (peptide sequence: IPFIRPADQYKDPQSK, peptide start residue: 1182) (UniProt Q9UM54)”, -0.359. Next, “UniProt Q9ULM2 (peptide sequence: WKDQDIEDEHKNQGR, peptide start residue: 100)”: 0.195; “UniProt Q9UHC6 (peptide sequence: GTYHTNEAK, peptide start residue: 89)”: -0.144; “ZNF639 (peptide sequence: CSDCLMR, peptide start residue: 462) (UniProt Q9UID6)”: 0.789.

These data come from the supplement of paper PMC12819154, “High-throughput peptide-centric local stability assay extends protein–ligand identification to membrane proteins, tissues and bacteria” (Nature Structural & Molecular Biology, 2025).
